Reference: the supplement of paper PMC10849652
This is one part of the list. Residues, ends and D or L forms follow the SMILES beside them. *: point of attachment. Cbz = O=C(OCc1ccccc1)*

Chains of the proteins cited; added tags and fusions are not shown. Lines headed by an entry give the natural chain unless they say otherwise; changes in a name come on top.
UniProt P55795: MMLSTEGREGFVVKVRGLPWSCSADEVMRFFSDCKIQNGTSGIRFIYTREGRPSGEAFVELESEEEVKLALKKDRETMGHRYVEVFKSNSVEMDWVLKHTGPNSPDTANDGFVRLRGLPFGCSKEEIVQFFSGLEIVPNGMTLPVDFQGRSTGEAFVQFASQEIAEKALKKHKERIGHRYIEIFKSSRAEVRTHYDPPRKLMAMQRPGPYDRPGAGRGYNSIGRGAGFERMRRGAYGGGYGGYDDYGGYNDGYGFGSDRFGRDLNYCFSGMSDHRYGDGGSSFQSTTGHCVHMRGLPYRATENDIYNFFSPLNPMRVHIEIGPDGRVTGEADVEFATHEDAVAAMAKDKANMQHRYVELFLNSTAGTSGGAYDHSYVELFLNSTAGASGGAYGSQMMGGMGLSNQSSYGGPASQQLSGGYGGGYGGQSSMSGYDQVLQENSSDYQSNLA
UniProt Q5SSJ5: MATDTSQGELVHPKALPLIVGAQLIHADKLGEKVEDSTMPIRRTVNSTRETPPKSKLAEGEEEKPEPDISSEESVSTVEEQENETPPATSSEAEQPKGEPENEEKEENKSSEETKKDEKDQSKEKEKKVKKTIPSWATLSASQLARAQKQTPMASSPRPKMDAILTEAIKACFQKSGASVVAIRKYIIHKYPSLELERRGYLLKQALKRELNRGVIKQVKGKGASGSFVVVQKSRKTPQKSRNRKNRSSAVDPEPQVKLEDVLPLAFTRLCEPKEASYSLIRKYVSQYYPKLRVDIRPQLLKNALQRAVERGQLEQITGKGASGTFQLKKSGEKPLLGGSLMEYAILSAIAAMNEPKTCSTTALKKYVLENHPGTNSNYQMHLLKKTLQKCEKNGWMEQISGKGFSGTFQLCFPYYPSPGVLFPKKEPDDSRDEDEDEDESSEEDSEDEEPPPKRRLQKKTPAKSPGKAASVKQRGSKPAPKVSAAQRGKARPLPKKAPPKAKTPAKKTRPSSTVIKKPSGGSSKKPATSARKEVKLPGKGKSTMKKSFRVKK
UniProt P07910: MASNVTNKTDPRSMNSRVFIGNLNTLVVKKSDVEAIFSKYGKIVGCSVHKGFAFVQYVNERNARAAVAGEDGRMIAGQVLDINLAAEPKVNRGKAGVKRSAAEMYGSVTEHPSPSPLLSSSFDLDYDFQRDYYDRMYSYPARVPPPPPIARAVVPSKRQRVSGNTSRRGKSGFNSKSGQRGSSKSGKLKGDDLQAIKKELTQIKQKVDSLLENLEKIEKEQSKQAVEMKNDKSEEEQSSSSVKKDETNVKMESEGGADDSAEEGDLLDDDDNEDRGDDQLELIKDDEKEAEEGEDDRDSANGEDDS
UniProt Q03014: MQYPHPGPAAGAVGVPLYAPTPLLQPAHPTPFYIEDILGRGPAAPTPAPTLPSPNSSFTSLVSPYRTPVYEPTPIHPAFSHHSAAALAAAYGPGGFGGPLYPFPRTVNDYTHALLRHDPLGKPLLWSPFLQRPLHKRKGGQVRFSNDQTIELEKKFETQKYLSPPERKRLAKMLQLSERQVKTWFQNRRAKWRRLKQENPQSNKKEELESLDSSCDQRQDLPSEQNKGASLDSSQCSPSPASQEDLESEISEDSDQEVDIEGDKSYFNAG
UniProt P26583: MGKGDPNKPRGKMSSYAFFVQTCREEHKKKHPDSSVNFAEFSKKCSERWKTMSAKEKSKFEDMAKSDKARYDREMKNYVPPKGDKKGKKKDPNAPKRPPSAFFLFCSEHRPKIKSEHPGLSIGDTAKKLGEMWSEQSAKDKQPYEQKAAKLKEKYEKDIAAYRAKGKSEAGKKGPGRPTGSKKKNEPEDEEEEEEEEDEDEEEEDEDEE
UniProt O75330: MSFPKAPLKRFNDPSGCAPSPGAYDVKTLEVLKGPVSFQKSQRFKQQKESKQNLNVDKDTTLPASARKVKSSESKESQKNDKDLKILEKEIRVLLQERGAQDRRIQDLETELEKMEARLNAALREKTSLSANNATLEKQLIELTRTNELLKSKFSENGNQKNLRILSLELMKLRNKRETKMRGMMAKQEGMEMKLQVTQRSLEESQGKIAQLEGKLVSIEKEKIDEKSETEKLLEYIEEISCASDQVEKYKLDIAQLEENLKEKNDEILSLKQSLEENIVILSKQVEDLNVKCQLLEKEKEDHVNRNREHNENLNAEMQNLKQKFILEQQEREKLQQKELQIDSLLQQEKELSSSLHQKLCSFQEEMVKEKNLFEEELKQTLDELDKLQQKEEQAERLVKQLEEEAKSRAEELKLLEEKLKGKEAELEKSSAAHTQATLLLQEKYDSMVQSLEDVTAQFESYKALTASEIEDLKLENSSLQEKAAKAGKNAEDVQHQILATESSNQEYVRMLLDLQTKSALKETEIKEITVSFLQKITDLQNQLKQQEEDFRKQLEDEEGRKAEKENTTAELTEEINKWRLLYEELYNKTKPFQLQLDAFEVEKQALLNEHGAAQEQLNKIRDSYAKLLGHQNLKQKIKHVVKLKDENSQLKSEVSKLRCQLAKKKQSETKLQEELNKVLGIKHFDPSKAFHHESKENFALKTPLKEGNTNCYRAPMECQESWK

Legend:
Experiment in all cases: log2 fold change, soluble protein after heating vs DMSO (PISA); higher = thermal stabilisation; K562 cells, 10 uM, 30 min; active = over 0.2 and 3.5 SD of the protein, either way, in both replicates (recomputed)
erlotinib = compound: C#Cc1cccc(Nc2ncnc3cc(OCCOC)c(OCCOC)cc23)c1 [erlotinib]
How it was run: (§1)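 K562 cells at 2×10^6 cells/mL were exposed to 10 μM compound for 30 min, then aliquots were heated for 3 min across 48°C-58°C, pooled, and extracted in PBS containing 0.5% NP-40 at 4°C. The supernatant after 21,000xg for 90 min was taken as soluble protein and measured by TMTpro 16plex LC-MS/MS with channel sums equalised. Thermal stability is reported relative to control samples, with values from duplicates. Fold changes are given on a log2 scale.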

[1] = compound: C/C(=N\NC(=O)C1=CC(=CC=C1)S(=O)(=O)N2CCOCC2)/C3=C(C=CC(=C3)Cl)O
How it was run: as §1

[2] = compound: C1=CC(=C(C=C1Cl)C2=NC3=NC=CN=C3C(=N2)NC4=CC=NC=C4)F
How it was run: as §1

[3] = compound: C1=CC(=CC=C1C2=NC3=C(N2)C=C(C=C3)C(=O)N)OC4=CC=C(C=C4)Cl
How it was run: as §1

[4] = compound: C1=CC2=C(C=CC(=C2)/C=C\3/C(=O)NC(=NCC4=CC=CS4)S3)N=C1
How it was run: as §1

[5] = compound: C1=CC2=NC=CN=C2C=C1/C=C/3\C(=O)NC(=O)S3
How it was run: as §1

[6] = compound: C1=CC=C(C=C1)C2=NC(=C(N2)C3=CC=NC=C3)C4=CC(=C(C=C4)Cl)O
How it was run: as §1

[7] = compound: C1=CC=C2C(=C1)C3=NNC4=CC=CC(=C43)C2=O
How it was run: as §1

[8] = compound: C1CCN(C1)C(=O)NC2=CC=CC(=C2)NC3=NC=C(C(=N3)NCCC4=CN=CN4)Br
How it was run: as §1

[9] = compound: C1CN(CCC1(CC2=CC=C(C=C2)Cl)N)C3=NC=NC4=C3C=CN4
How it was run: as §1

IRAK-1-4 Inhibitor I = compound: C1COCCN1CCN2C3=CC=CC=C3N=C2NC(=O)C4=CC(=CC=C4)[N+](=O)[O-] [IRAK-1-4 Inhibitor I]
How it was run: as §1

ibrutinib = compound: C=CC(=O)N1CCC[C@@H](n2nc(-c3ccc(Oc4ccccc4)cc3)c3c(N)ncnc32)C1 [ibrutinib]
How it was run: as §1

[10] = compound: CC(=O)c1cnc2ccc(-c3cc(Cl)c(O)c(Cl)c3)nc2c1N[C@H]1CC[C@H](CN(C)C)CC1
How it was run: as §1

ralimetinib = compound: CC(C)(C)Cn1c(N)nc2ccc(-c3[nH]c(C(C)(C)C)nc3-c3ccc(F)cc3)nc21 [ralimetinib]
How it was run: as §1

[11] = compound: CC(C)(O)CC(=O)NCCn1ccc2ncnc(Nc3ccc(Oc4cccc(C(F)(F)F)c4)c(Cl)c3)c21
How it was run: as §1

[12] = compound: CC(C)C1=C2N=C(C=C(N2N=C1)NCC3=CC=CC=C3)NCCCCCCN
How it was run: as §1

[13] = compound: CC(C)C[C@@H](C=O)NC(=O)[C@H](CC(C)C)NC(=O)[C@H](CC(C)C)NC(=O)OCc1ccccc1
How it was run: as §1

pinometostat = compound: CC(C)N(C[C@H]1O[C@@H](n2cnc3c(N)ncnc32)[C@H](O)[C@@H]1O)[C@H]1C[C@@H](CCc2nc3cc(C(C)(C)C)ccc3[nH]2)C1 [pinometostat]
How it was run: as §1

[14] = compound: CC1=C(C2=C(C=C1)C(=O)C3=CC=CC=C3N2CCCN)C
How it was run: as §1

[15] = compound: CC1=C(C(CC(=O)N1)C2=CC=C(C=C2)C(F)(F)F)C(=O)NC3=C(C=C4C(=C3)C=NN4)F
How it was run: as §1

Measured: log2 fold change

HNRNPK isoform 2 (UniProt P61978)
inactive: erlotinib 0.042 | [1] 0.019 | [2] -0.003 | [3] 0 | [4] 0.058 | [5] -0.008 | [6] -0.013 | [7] -0.024 | [8] 0.011 | [9] 0.02 | IRAK-1-4 Inhibitor I -0.014 | ibrutinib -0.014 | [10] -0.161 | ralimetinib -0.054 | [11] -0.025 | [13] 0.003 | pinometostat -0.033 | [14] -0.062
active: [12] -0.283

HNRNPH2 (UniProt P55795)
inactive: erlotinib 0.019 | [1] 0.17 | [2] 0.037 | [3] -0.028 | [4] 0.112 | [5] -0.031 | [6] -0.047 | [7] -0.016 | [8] -0.068 | [9] 0.024 | IRAK-1-4 Inhibitor I -0.081 | ibrutinib -0.024 | [10] -0.134 | ralimetinib 0.137 | [11] -0.067 | [13] 0.124 | pinometostat 0 | [14] -0.104
active: [12] -0.345

HMGN2 (UniProt P05204)
inactive: erlotinib -0.02 | [1] -0.01 | [2] -0.255 | [3] 0.034 | [4] -0.125 | [5] -0.039 | [6] -0.052 | [7] 0.059 | [8] 0.011 | [9] 0.019 | IRAK-1-4 Inhibitor I -0.034 | ibrutinib -0.009 | [10] 0.121 | ralimetinib -0.024 | [11] 0.29 | [12] 0.128 | [13] 0.093 | pinometostat -0.074
active: [14] 0.401

HP1BP3 (UniProt Q5SSJ5)
inactive: erlotinib 0.071 | [1] -0.035 | [2] -0.04 | [3] 0.028 | [4] 0.069 | [5] 0.064 | [6] -0.013 | [7] -0.044 | [8] 0.027 | [9] -0.155 | IRAK-1-4 Inhibitor I -0.097 | ibrutinib 0.003 | [10] 0.051 | ralimetinib 0.089 | [11] -0.013 | [12] -0.031 | [13] 0.063 | pinometostat 0.092
active: [14] -0.387

HNRNPC isoform 2 (UniProt P07910)
inactive: erlotinib 0.093 | [1] -0.349 | [2] -0.682 | [3] 0.204 | [4] 0.025 | [5] 0.188 | [6] -0.172 | [7] -0.164 | [8] 0.087 | [9] -0.385 | IRAK-1-4 Inhibitor I -0.332 | ibrutinib 0.043 | [10] -0.365 | ralimetinib 0.106 | [11] 0.195 | [12] -0.197 | [13] 0.281 | pinometostat 0.238 | [14] -0.629

HHEX (UniProt Q03014)
inactive: erlotinib -0.043 | [1] -0.206 | [2] 0.069 | [3] 0.044 | [4] 0.008 | [5] -0.022 | [6] -0.044 | [7] 0.037 | [8] -0.004 | [9] 0.022 | IRAK-1-4 Inhibitor I 0.045 | ibrutinib 0.059 | [10] 0.005 | ralimetinib -0.059 | [11] -0.064 | [12] -0.113 | [13] 0.189 | pinometostat -0.075 | [14] -0.074

HMGB2 (UniProt P26583)
inactive: erlotinib -0.014 | [1] 0.016 | [2] 0.068 | [3] 0.023 | [4] -0.045 | [5] -0.015 | [6] 0.043 | [7] 0.054 | [8] -0.024 | [9] 0.021 | IRAK-1-4 Inhibitor I 0.069 | ibrutinib 0.043 | [10] 0.054 | ralimetinib 0.036 | [11] 0.043 | [12] 0.118 | [13] -0.037 | pinometostat -0.058 | [15] 0.017 | [14] 0.079

HMMR isoform 3 (UniProt O75330)
inactive: erlotinib 0.016 | [1] 0.035 | [2] -0.036 | [3] -0.024 | [4] -0.016 | [5] 0.017 | [6] -0.017 | [7] 0.009 | [8] -0.03 | [9] -0.069 | IRAK-1-4 Inhibitor I -0.076 | ibrutinib -0.031 | [10] 0.005 | ralimetinib 0.066 | [11] -0.022 | [12] -0.121 | [13] 0.128 | pinometostat 0.155 | [15] -0.014 | [14] 0.064
